# PubChem BioAssay AID652259 – Drosophila RNAi Screening Center | 2013
# Test: 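Genome-wide hunt for genes that control Wingless pathway activity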 (primary screen)
# Cells: Drosophila clone 8 imaginal disc epithelial cells
# Reagents: long dsRNA against Drosophila genes
# Conditions: pathway stimulated by co-transfected Wingless expression plasmid
# Measurement: 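Dual luciferase reads per well after Wingless plasmid stimulation: reporter firefly light and Renilla control light; activity is firefly divided by Renilla, a ratio not deposited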
# Direction: firefly reporter light: higher = more Wg reporter light, before normalisation; Renilla control light: higher = more transfected or surviving cells
# Hit rule: 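Strong candidates differ from their plate mean by at least two out of four per-plate statistical tests; weak candidates meet just one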
# Meaning of the calls: active = candidate regulator (raises or lowers reporter); inactive = not a candidate
# In all, the deposit lists about 22,000 reagents; shown is a random part of those with a known target gene and a result. In the full data, 233 (1.1%) got an active call. 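Light values are raw, unnormalised plate reads; the ratio scores behind the reporter calls were not deposited.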 The numbers tell different reagents against one gene apart. Names joined by + are all predicted targets of the reagent. Not stated in the record: the amount of reagent, the time to read-out, the dose of the treatment.
Gene,reagent no.,"firefly reporter light, replicate 1","firefly reporter light, replicate 2","Renilla control light, replicate 1","Renilla control light, replicate 2",outcome
Eps-15 (Epidermal growth factor receptor pathway substrate clone 15),1,15275,,3875,,inactive
sqa (spaghetti-squash activator),1,6544,,2403,,inactive
sqa (spaghetti-squash activator),2,5.53e5,6.93e5,2.74e5,2.28e5,inactive
CG5246,1,13093,,3856,,inactive
XNP,1,3404,5149,1885,1096,inactive
CG3009,1,2693,5120,960,1244,inactive
Dref (DNA replication-related element factor),1,8340,,579,,inactive
CG10560,1,17475,,19392,,inactive
Irc (Immune-regulated catalase),1,3379,6439,1408,2010,inactive
spg (sponge),1,6691,,3452,,inactive
spg (sponge),2,9190,,5243,,inactive
jv (javelin),1,2073,,842,,inactive
jv (javelin),2,2652,,1216,,inactive
CG10357,1,4137,,2390,,inactive
sturkopf,1,11515,,3328,,inactive
Gas41,1,8965,,3109,,inactive
mAcon2 (Mitochondrial aconitase 2),1,13209,,4148,,inactive
CG34282,1,15128,,3168,,inactive
CG17738,1,20234,,4437,,inactive
"Dnah3 (dynein, axonemal, heavy chain 3)",1,3722,,1529,,inactive
"Dnah3 (dynein, axonemal, heavy chain 3)",2,2068,6912,1123,3004,inactive
slou (slouch),1,36045,,6874,,inactive
DIP-delta (Dpr-interacting protein delta),1,899,7344,1027,3704,inactive
DIP-delta (Dpr-interacting protein delta),2,1432,13872,1104,4457,inactive
p120ctn (p120 catenin),1,4576,,2272,,inactive
CG9592,1,5666,,2939,,inactive
NetB (Netrin-B),1,1872,5920,829,2600,inactive
CG42562,1,9690,,3581,,inactive
D19B,1,2445,8423,980,2452,inactive
TFAM (mitochondrial transcription factor A),1,1970,5488,739,1220,inactive
CkIIalpha (casein kinase IIalpha),1,7681,,3159,,inactive
FIG4 (FIG4 phosphoinositide 5-phosphatase),1,11692,,3852,,inactive
Rpn11 (Regulatory particle non-ATPase 11),1,1559,3024,464,1049,inactive
CG8531,1,11248,,3283,,inactive
CG16711,1,5488,,2343,,inactive
CG12521,1,7290,,2405,,inactive
Vps16B (Vacuolar protein sorting 16B),1,8109,,1995,,inactive
Prat (Phosphoribosylamidotransferase),1,3698,,821,,inactive
CG31077,1,4518,,2020,,inactive
Awh (Arrowhead),1,5996,,3548,,inactive
Cyp6u1 (Cytochrome P450 6u1),1,9843,,3033,,inactive
fkh (fork head),1,8773,,2931,,inactive
CG1371,1,7648,,2592,,inactive

Look-ups from above:
For “Renilla control light, replicate 1”, CG12521 has 2405
For “firefly reporter light, replicate 1”, mAcon2 (Mitochondrial aconitase 2) has 13209
Under “firefly reporter light, replicate 1”, CG8531 is entered as 11248
FIG4 (FIG4 phosphoinositide 5-phosphatase), firefly reporter light, replicate 1 → 11692
Entry of CkIIalpha (casein kinase IIalpha) in “outcome”: inactive

Continued.
Gene,reagent no.,"firefly reporter light, replicate 1","firefly reporter light, replicate 2","Renilla control light, replicate 1","Renilla control light, replicate 2",outcome
l(3)72Dr (lethal (3) 72Dr),1,6775,,3190,,inactive
yem (yemanuclein),1,8508,,2759,,inactive
yem (yemanuclein),2,6384,,2290,,inactive
Prosap,1,6785,,2035,,inactive
Prosap,2,12717,,3084,,inactive
Spt6,1,1424,5281,425,1588,inactive
CG31549,1,7.00e5,5.89e5,3.07e5,2.41e5,inactive
CG7227,1,9892,,3753,,inactive
Arl8 (ADP ribosylation factor-like 8),1,17069,,4208,,inactive
CG33490,1,2346,,1332,,inactive
CheA86a (Chemosensory protein A 86a),1,3257,,235,,inactive
Dh44-R1 (Diuretic hormone 44 receptor 1),1,12468,,2917,,inactive
CG10154,1,5526,,2210,,inactive
Cyt-b5-r (Cytochrome b5-related),1,4304,8950,841,4316,inactive
CG17237,1,3141,7872,1193,3272,inactive
EAChm (Enhancer of Acetyltransferase Chameau),1,5042,,1936,,inactive
CG32040,1,4070,,914,,inactive
CG32040,2,4.36e5,4.11e5,1.65e5,1.15e5,inactive
Sara (Smad anchor for receptor activation),1,1707,5315,834,1942,inactive
gudu,1,2981,7539,842,3008,inactive
CG16786,1,3514,6416,506,2440,inactive
ana (anachronism),1,15036,,3877,,inactive
CG17030,1,1072,6131,1037,2592,inactive
Syt7 (Synaptotagmin 7),1,28504,,25971,,inactive
Syt7 (Synaptotagmin 7),2,22553,,19621,,inactive
CG13723,1,8583,,3040,,inactive
Ent2 (Equilibrative nucleoside transporter 2),1,13174,,4214,,inactive
CG4836,1,3074,12387,1456,2752,inactive
CG4836,2,5.83e5,5.49e5,2.28e5,2.77e5,inactive
Hasp (Hig-anchoring scaffold protein),1,14464,,4148,,inactive
Shal (Shaker cognate l),1,3047,,1248,,inactive
Shal (Shaker cognate l),2,19020,,7494,,inactive
CG31104,1,16933,,14386,,inactive
achi (achintya),1,5881,,2055,,inactive
RpL10 (Ribosomal protein L10),1,9764,,3049,,inactive
mRpS22 (mitochondrial ribosomal protein S22),1,2112,7656,923,2077,inactive
Tep1 (Thioester-containing protein 1),1,1840,3585,820,2104,inactive
Lcp1 (Larval cuticle protein 1),1,3760,7203,803,1222,inactive
CG15117,1,13376,,3488,,inactive
Gk1 (Glycerol kinase 1),1,10840,,3588,,inactive
Gk1 (Glycerol kinase 1),2,3751,,2116,,inactive
Alg13 (Alg13 UDP-N-acetylglucosaminyltransferase subunit),1,13532,8.58e5,4626,3.33e5,inactive
CR14117 (pseudo),1,4208,,2070,,inactive
CG42535,1,1773,,850,,inactive
CG14818,1,28779,,17216,,inactive
temp (tempura),1,3117,7617,1402,2411,inactive
cola + swif,1,5083,8061,853,2968,inactive
cola + swif,2,4.76e5,4.55e5,1.90e5,1.85e5,inactive
CG12589,1,23216,,4992,,inactive
CG11597,1,3056,,1584,,inactive
